In the supplement of paper PMC10849652:
The other results are listed elsewhere or left out.

Sequences of proteins named here, by UniProt entry; tags and fusion partners are left off. A change or cut given only in a name is not applied to a line headed by its entry.
UniProt P21359: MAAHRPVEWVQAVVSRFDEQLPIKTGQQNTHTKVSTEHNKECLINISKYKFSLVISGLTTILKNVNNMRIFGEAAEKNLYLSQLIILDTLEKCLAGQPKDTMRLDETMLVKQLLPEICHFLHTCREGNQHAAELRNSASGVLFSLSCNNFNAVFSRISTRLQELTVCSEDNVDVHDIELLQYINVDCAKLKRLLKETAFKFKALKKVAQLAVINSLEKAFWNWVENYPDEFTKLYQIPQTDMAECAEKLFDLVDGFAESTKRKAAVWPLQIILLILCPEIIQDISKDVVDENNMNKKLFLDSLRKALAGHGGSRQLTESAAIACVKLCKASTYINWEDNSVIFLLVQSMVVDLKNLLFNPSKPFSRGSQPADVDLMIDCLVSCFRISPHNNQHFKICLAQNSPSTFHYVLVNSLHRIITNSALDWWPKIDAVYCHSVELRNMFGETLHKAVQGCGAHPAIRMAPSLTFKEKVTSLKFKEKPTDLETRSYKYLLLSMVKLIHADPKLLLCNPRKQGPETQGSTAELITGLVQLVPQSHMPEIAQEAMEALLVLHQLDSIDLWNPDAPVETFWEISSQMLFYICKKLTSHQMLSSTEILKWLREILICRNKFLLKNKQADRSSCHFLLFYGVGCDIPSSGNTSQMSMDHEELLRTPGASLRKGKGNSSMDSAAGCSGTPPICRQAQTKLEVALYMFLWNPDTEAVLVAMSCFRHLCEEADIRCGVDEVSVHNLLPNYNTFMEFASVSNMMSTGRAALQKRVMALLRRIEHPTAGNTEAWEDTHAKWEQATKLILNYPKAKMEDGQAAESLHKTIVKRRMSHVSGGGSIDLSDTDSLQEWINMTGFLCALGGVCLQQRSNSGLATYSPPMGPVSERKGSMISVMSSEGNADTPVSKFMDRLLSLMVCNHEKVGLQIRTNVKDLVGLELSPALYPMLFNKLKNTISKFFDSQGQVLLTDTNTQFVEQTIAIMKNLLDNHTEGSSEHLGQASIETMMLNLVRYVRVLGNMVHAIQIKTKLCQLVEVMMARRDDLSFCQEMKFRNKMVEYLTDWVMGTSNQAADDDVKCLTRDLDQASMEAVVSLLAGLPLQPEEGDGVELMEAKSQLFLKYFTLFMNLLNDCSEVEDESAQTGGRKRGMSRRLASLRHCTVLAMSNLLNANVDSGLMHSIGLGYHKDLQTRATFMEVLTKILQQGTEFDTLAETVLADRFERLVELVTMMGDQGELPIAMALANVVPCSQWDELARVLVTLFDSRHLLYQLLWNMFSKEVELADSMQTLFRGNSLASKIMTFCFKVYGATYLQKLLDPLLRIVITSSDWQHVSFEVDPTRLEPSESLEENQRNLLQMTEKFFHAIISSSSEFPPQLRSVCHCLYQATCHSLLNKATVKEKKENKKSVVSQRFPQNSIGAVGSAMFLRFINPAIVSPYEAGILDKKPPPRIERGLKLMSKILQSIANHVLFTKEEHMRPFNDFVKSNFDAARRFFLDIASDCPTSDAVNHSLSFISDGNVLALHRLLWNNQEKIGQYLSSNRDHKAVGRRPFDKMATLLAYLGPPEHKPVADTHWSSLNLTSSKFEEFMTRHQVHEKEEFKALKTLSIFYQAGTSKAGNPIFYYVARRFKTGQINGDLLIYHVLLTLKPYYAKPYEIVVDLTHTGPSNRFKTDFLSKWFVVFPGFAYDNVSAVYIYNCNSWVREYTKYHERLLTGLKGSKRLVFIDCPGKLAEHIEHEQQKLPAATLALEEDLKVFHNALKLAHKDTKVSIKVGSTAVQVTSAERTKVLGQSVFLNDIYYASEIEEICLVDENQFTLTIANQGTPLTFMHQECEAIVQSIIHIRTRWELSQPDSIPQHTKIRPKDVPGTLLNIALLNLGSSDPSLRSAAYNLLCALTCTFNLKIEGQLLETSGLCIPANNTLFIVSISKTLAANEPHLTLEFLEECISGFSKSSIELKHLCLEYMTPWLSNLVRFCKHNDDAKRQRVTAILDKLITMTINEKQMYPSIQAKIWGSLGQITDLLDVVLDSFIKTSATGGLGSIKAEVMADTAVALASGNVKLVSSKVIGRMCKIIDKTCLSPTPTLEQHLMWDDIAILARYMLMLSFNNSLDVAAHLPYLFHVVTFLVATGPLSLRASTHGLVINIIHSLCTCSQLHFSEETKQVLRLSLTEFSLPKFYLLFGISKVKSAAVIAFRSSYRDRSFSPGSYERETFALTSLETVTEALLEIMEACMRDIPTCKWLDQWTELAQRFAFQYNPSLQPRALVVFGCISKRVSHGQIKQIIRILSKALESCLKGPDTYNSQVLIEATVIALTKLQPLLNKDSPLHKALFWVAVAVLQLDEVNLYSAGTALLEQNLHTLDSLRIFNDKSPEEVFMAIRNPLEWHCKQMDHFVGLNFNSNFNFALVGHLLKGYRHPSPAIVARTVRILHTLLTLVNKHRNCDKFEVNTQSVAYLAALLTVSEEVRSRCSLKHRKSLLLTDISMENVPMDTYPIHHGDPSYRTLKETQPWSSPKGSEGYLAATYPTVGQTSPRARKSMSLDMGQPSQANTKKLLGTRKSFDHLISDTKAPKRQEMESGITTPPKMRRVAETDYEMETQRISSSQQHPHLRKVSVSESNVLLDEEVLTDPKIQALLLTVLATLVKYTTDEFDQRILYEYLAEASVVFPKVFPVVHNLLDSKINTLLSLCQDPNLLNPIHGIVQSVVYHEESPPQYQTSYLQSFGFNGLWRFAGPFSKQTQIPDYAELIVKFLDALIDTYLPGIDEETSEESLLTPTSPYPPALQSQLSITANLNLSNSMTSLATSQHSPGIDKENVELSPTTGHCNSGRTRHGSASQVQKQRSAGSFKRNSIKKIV
UniProt O75489, whole entry, looked up: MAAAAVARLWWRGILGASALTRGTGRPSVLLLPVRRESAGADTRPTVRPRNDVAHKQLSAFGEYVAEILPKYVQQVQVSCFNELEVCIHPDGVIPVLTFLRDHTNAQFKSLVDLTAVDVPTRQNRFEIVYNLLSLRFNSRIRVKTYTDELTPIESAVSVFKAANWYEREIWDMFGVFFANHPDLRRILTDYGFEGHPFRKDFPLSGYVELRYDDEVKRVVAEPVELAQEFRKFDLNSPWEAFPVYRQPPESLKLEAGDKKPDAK
UniProt O75306, whole entry, looked up: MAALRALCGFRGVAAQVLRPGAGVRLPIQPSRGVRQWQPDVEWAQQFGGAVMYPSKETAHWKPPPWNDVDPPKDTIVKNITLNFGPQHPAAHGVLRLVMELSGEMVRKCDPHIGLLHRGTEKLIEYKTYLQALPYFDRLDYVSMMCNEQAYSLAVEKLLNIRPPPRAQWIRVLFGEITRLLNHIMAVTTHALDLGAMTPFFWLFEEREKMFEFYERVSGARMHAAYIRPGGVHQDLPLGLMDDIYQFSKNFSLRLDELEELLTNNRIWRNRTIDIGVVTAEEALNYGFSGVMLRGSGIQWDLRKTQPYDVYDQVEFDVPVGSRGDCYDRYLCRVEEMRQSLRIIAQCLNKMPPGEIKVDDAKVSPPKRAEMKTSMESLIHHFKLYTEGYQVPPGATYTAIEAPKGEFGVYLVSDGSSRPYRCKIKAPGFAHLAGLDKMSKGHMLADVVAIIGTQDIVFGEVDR
UniProt P12036: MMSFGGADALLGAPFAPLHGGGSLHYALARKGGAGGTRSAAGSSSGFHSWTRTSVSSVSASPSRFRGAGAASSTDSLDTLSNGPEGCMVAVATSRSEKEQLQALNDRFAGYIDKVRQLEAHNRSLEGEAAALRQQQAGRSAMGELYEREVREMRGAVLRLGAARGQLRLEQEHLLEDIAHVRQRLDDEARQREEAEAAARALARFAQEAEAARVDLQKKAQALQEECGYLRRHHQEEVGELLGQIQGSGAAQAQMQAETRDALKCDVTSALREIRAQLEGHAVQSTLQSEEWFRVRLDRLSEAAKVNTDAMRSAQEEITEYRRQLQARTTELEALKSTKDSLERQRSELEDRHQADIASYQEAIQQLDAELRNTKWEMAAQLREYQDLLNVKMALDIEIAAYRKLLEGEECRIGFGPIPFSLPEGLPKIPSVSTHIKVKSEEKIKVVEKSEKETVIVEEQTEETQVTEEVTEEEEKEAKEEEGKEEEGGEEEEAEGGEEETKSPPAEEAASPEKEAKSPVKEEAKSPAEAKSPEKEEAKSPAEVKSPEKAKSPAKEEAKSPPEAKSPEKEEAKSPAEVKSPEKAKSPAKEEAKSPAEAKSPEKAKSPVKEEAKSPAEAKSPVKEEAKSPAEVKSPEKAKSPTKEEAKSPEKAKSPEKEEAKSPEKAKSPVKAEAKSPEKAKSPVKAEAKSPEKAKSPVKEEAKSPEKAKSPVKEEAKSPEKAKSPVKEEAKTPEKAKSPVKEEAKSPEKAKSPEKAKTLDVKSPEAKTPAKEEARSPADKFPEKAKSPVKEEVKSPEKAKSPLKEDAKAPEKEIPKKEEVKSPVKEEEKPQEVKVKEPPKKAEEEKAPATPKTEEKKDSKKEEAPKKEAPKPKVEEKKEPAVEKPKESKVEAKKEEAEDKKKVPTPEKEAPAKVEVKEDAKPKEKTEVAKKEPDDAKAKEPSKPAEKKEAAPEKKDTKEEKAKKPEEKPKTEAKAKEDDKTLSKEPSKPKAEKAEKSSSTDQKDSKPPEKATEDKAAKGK
UniProt Q9NVZ3: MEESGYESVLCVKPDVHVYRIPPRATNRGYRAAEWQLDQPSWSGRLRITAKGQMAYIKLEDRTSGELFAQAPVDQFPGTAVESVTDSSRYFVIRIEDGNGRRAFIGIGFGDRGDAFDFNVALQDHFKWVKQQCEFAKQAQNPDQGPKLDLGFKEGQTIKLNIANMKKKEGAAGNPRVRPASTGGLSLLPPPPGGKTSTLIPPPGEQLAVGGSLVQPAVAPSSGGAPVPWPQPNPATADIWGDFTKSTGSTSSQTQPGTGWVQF
UniProt Q9NPE2: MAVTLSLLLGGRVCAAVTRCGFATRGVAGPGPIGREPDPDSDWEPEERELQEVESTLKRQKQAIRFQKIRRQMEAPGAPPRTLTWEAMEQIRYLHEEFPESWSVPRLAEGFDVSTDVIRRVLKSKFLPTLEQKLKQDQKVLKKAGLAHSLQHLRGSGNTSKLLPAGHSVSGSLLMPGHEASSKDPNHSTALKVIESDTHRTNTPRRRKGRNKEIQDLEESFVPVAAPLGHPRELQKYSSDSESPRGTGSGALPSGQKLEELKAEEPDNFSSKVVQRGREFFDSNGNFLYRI
UniProt Q9H9Q4: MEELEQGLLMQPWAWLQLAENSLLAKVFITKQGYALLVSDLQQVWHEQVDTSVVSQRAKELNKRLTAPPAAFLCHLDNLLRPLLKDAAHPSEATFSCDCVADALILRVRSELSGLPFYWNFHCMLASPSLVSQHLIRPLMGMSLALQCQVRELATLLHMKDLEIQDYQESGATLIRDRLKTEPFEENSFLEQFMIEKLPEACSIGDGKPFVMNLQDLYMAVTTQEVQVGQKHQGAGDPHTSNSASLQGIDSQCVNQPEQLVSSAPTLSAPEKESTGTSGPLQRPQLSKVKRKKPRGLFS
UniProt Q9Y697: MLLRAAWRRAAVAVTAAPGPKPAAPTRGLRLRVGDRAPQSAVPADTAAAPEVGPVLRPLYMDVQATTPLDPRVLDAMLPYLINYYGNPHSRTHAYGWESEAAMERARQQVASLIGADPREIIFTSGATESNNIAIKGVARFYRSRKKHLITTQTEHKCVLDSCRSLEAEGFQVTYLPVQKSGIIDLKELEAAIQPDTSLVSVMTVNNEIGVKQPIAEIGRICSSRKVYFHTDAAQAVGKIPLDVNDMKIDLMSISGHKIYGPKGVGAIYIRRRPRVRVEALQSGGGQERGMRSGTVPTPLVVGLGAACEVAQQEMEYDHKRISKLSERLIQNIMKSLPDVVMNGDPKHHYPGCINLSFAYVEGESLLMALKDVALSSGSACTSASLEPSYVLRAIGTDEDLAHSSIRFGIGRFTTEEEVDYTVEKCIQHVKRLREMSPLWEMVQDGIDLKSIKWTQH
UniProt O43920, whole entry, looked up: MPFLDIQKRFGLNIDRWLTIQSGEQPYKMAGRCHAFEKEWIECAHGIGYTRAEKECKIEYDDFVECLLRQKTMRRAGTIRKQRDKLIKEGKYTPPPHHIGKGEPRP
UniProt Q9P032: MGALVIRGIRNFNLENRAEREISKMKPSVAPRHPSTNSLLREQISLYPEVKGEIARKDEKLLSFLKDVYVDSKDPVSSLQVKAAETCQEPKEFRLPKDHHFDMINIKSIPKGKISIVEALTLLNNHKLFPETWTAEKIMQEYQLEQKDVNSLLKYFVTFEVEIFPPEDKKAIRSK
UniProt P51970, whole entry, looked up: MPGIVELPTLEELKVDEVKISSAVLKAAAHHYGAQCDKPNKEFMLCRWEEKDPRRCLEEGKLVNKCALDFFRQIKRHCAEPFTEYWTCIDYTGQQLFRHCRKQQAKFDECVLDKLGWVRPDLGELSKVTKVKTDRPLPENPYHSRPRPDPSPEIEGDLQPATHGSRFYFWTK
UniProt Q9Y221: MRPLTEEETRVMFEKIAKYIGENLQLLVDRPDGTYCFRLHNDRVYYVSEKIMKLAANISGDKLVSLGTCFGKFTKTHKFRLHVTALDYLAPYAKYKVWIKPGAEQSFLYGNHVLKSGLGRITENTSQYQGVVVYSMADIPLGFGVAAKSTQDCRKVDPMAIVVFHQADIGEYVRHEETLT

Columns and labels:
Experiment in all cases: log2 fold change, soluble protein after heating vs DMSO (PISA); higher = thermal stabilisation; K562 lysate, 10 uM; active = over 0.2 and 3.5 SD of the protein, either way, in both replicates (recomputed)
vemurafenib = compound: CCCS(=O)(=O)Nc1ccc(F)c(C(=O)c2c[nH]c3ncc(-c4ccc(Cl)cc4)cc23)c1F [vemurafenib]
Summary of the method: (§1)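 To prepare the extract, K562 pellets were dounce-homogenised in PBS pH 7.4 with 1 mM MgCl2, giving crude material at 1 mg/mL protein. This was treated with 10 μM compound for 30 min, then heated in aliquots for 3 min over 48°C-58°C before pooling and addition of NP-40 to 0.5% at 4°C. Centrifugation at 21,000xg for 90 min left soluble protein in the supernatant, which TMTpro 16plex LC-MS/MS quantified with equalised channel sums. Results are log-two fold changes in thermal stability compared with solvent controls, from duplicates.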

[1] = compound: CCCS(=O)(=O)Nc1ccc(F)c(C(=O)c2c[nH]c3ncc(Cl)cc23)c1F
Summary of the method: as §1

barasertib = compound: CCN(CCCOc1ccc2c(Nc3cc(CC(=O)Nc4cccc(F)c4)[nH]n3)ncnc2c1)CCOP(=O)(O)O [barasertib]
Summary of the method: as §1

[2] = compound: CC[C@@H]1C(=O)N(C)c2cnc(Nc3ccc(C(=O)NC4CCN(C)CC4)cc3OC)nc2N1C1CCCC1
Summary of the method: as §1

volasertib = compound: CC[C@@H]1C(=O)N(C)c2cnc(Nc3ccc(C(=O)N[C@H]4CC[C@H](N5CCN(CC6CC6)CC5)CC4)cc3OC)nc2N1C(C)C [volasertib]
Summary of the method: as §1

[3] = compound: CCn1c(C(=O)N(C2CC2)C2CC2)cc2c3c(ncn3C)c(Nc3cc(C)n(C)n3)nc21
Summary of the method: as §1

[4] = compound: CCn1cc(-c2ccnc3[nH]c(-c4cccc(CN(C)C)c4)cc23)c(-c2ccc(NC(=O)N(C)C)cc2)n1
Summary of the method: as §1

[5] = compound: CN1CCC(CNc2ccc3ncc(-c4cccc(OC(F)(F)F)c4)n3n2)CC1
Summary of the method: as §1

saracatinib = compound: CN1CCN(CCOc2cc(OC3CCOCC3)c3c(Nc4c(Cl)ccc5c4OCO5)ncnc3c2)CC1 [saracatinib]
Summary of the method: as §1

sotrastaurin = compound: CN1CCN(c2nc(C3=C(c4c[nH]c5ccccc45)C(=O)NC3=O)c3ccccc3n2)CC1 [sotrastaurin]
Summary of the method: as §1

Measured: log2 fold change

NDC80 (UniProt O14777)
inactive: vemurafenib -0.098 | [1] 0.027 | barasertib 0.003 | [2] -0.04 | volasertib -0.016 | [3] 0.044 | [4] 0.051 | [5] -0.081 | saracatinib 0.009 | sotrastaurin -0.022

NDRG2 (UniProt Q9UN36)
inactive: vemurafenib -0.035 | [1] 0.017 | barasertib -0.012 | [2] 0.053 | volasertib 0.008 | [3] -0.015 | [4] -0.022 | [5] 0.001 | saracatinib 0.013 | sotrastaurin 0.004

NF1 (UniProt P21359)
inactive: vemurafenib 0.019 | [1] 0.024 | barasertib 0.029 | [2] -0.044 | volasertib -0.048 | [3] 0.031 | [4] -0.035 | [5] -0.041 | saracatinib 0.001 | sotrastaurin -0.029

NDUFA5 (UniProt Q16718)
inactive: vemurafenib -0.032 | [1] -0.012 | barasertib 0.187 | [2] 0.012 | volasertib 0.011 | [3] 0.002 | [4] -0.014 | [5] -0.093 | saracatinib 0.02 | sotrastaurin -0.068

NDUFS3 (UniProt O75489)
inactive: vemurafenib -0.038 | [1] 0.014 | barasertib -0.003 | [2] 0.025 | volasertib 0.014 | [3] 0.026 | [4] 0.039 | [5] -0.07 | saracatinib -0.001 | sotrastaurin -0.017

NFE2 (UniProt Q16621)
inactive: vemurafenib -0.004 | [1] 0.024 | barasertib 0.03 | [2] -0.004 | volasertib -0.025 | [3] -0.024 | [4] -0.031 | [5] -0.015 | saracatinib 0.01 | sotrastaurin -0.058

NFYC (UniProt Q13952)
inactive: vemurafenib -0.019 | [1] -0.035 | barasertib 0.035 | [2] 0.013 | volasertib 0.009 | [3] 0.004 | [4] -0.037 | [5] 0.06 | saracatinib -0.022 | sotrastaurin 0.034

NDUFS1 isoform 2 (UniProt P28331)
inactive: vemurafenib 0.041 | [1] 0.018 | barasertib 0.011 | [2] -0.032 | volasertib -0.001 | [3] 0.016 | [4] -0.006 | [5] -0.027 | saracatinib -0.004 | sotrastaurin 0.054

NDUFS2 (UniProt O75306)
inactive: vemurafenib 0.031 | [1] 0.035 | barasertib -0.001 | [2] -0.027 | volasertib -0.018 | [3] -0.005 | [4] -0.004 | [5] -0.048 | saracatinib 0.021 | sotrastaurin -0.008

NEFH (UniProt P12036)
inactive: vemurafenib 0.021 | [1] -0.004 | barasertib -0.057 | [2] 0.051 | volasertib 0.053 | [3] -0.018 | [4] -0.018 | [5] -0.025 | saracatinib 0.039 | sotrastaurin -0.022

NDUFV1 (UniProt P49821)
inactive: vemurafenib 0.036 | [1] 0.015 | barasertib -0.03 | [2] 0.035 | volasertib 0.006 | [3] -0.015 | [4] -0.089 | [5] 0.003 | saracatinib 0.021 | sotrastaurin 0.029

NECAP2 (UniProt Q9NVZ3)
inactive: vemurafenib -0.038 | [1] -0.005 | barasertib -0.011 | [2] 0.073 | volasertib 0.04 | [3] -0.022 | [4] 0.044 | [5] -0.002 | saracatinib -0.015 | sotrastaurin -0.042

NISCH (UniProt Q9Y2I1)
inactive: vemurafenib -0.01 | [1] -0.013 | barasertib 0.014 | [2] -0.042 | volasertib -0.039 | [3] 0.028 | [4] 0.051 | [5] -0.106 | saracatinib -0.03 | sotrastaurin 0.017

NEDD4L (UniProt Q96PU5)
inactive: vemurafenib 0.022 | [1] 0.019 | barasertib -0.002 | [2] -0.039 | volasertib -0.049 | [3] 0.039 | [4] -0.03 | [5] 0.023 | saracatinib -0.004 | sotrastaurin 0.026

NIBAN1 (UniProt Q9BZQ8)
inactive: vemurafenib -0.008 | [1] 0.014 | barasertib 0.023 | [2] -0.046 | volasertib -0.054 | [3] -0.004 | [4] 0.009 | [5] -0.035 | saracatinib -0.02 | sotrastaurin 0.005

NHP2 (UniProt Q9NX24)
inactive: vemurafenib -0.018 | [1] 0.037 | barasertib -0.022 | [2] 0.112 | volasertib 0.003 | [3] 0.013 | [4] -0.256 | [5] 0.07 | saracatinib -0.009 | sotrastaurin -0.001

NGRN (UniProt Q9NPE2)
inactive: vemurafenib -0.076 | [1] 0.029 | barasertib 0.021 | [2] -0.013 | volasertib 0.065 | [3] -0.018 | [4] 0.043 | [5] 0.03 | saracatinib 0.079 | sotrastaurin 0.034

NFX1 (UniProt Q12986)
inactive: vemurafenib 0.019 | [1] 0.05 | barasertib 0.102 | [2] 0.225 | volasertib 0.014 | [3] -0.035 | [4] -0.085 | [5] 0.016 | saracatinib -0.051 | sotrastaurin 0.023

Eight successive records from above, quoted:
NEFH (UniProt P12036)
inactive: vemurafenib 0.021 | [1] -0.004 | barasertib -0.057 | [2] 0.051 | volasertib 0.053 | [3] -0.018 | [4] -0.018 | [5] -0.025 | saracatinib 0.039 | sotrastaurin -0.022

NDUFV1 (UniProt P49821)
inactive: vemurafenib 0.036 | [1] 0.015 | barasertib -0.03 | [2] 0.035 | volasertib 0.006 | [3] -0.015 | [4] -0.089 | [5] 0.003 | saracatinib 0.021 | sotrastaurin 0.029

NECAP2 (UniProt Q9NVZ3)
inactive: vemurafenib -0.038 | [1] -0.005 | barasertib -0.011 | [2] 0.073 | volasertib 0.04 | [3] -0.022 | [4] 0.044 | [5] -0.002 | saracatinib -0.015 | sotrastaurin -0.042

NISCH (UniProt Q9Y2I1)
inactive: vemurafenib -0.01 | [1] -0.013 | barasertib 0.014 | [2] -0.042 | volasertib -0.039 | [3] 0.028 | [4] 0.051 | [5] -0.106 | saracatinib -0.03 | sotrastaurin 0.017

NEDD4L (UniProt Q96PU5)
inactive: vemurafenib 0.022 | [1] 0.019 | barasertib -0.002 | [2] -0.039 | volasertib -0.049 | [3] 0.039 | [4] -0.03 | [5] 0.023 | saracatinib -0.004 | sotrastaurin 0.026

NIBAN1 (UniProt Q9BZQ8)
inactive: vemurafenib -0.008 | [1] 0.014 | barasertib 0.023 | [2] -0.046 | volasertib -0.054 | [3] -0.004 | [4] 0.009 | [5] -0.035 | saracatinib -0.02 | sotrastaurin 0.005

NHP2 (UniProt Q9NX24)
inactive: vemurafenib -0.018 | [1] 0.037 | barasertib -0.022 | [2] 0.112 | volasertib 0.003 | [3] 0.013 | [4] -0.256 | [5] 0.07 | saracatinib -0.009 | sotrastaurin -0.001

NGRN (UniProt Q9NPE2)
inactive: vemurafenib -0.076 | [1] 0.029 | barasertib 0.021 | [2] -0.013 | volasertib 0.065 | [3] -0.018 | [4] 0.043 | [5] 0.03 | saracatinib 0.079 | sotrastaurin 0.034

The listing continues:

NHEJ1 (UniProt Q9H9Q4)
inactive: vemurafenib 0.176 | [1] 0.02 | barasertib 0.007 | [2] 0.001 | volasertib 0.008 | [3] -0.064 | [4] -0.08 | [5] 0.016 | saracatinib 0.025 | sotrastaurin 0.013

NFS1 (UniProt Q9Y697)
inactive: vemurafenib 0.027 | [1] 0.014 | barasertib -0.008 | [2] 0.038 | volasertib -0.027 | [3] -0.009 | [4] -0.002 | [5] 0.027 | saracatinib -0.047 | sotrastaurin -0.001

NDUFS5 (UniProt O43920)
inactive: vemurafenib 0.002 | [1] 0.035 | barasertib -0.061 | [2] 0.019 | volasertib -0.005 | [3] -0.023 | [4] 0.016 | [5] -0.038 | saracatinib 0.018 | sotrastaurin -0.027

NDUFAF2 (UniProt Q8N183)
inactive: vemurafenib -0.023 | [1] -0.042 | barasertib 0.009 | [2] 0.056 | volasertib 0.022 | [3] 0.022 | [4] -0.174 | [5] 0.014 | saracatinib 0.025 | sotrastaurin -0.008

NDUFAB1 (UniProt O14561)
inactive: vemurafenib 0.056 | [1] 0.029 | barasertib 0.019 | [2] 0.089 | volasertib 0.012 | [3] 0.08 | [4] -0.096 | [5] 0.006 | saracatinib -0.03 | sotrastaurin -0.296

NDUFAF4 (UniProt Q9P032)
inactive: vemurafenib -0.029 | [1] 0.038 | barasertib 0.043 | [2] 0.016 | volasertib -0.001 | [3] 0.039 | [4] 0.182 | [5] -0.08 | saracatinib 0.011 | sotrastaurin -0.021

NLN (UniProt Q9BYT8)
inactive: vemurafenib 0.024 | [1] -0.005 | barasertib 0.038 | [2] 0.009 | volasertib 0.02 | [3] -0.009 | [4] 0.078 | [5] -0.141 | saracatinib -0.009 | sotrastaurin 0.002

NEDD4 isoform 4 (UniProt P46934)
inactive: vemurafenib 0.042 | [1] 0.017 | barasertib 0.027 | [2] -0.02 | volasertib -0.019 | [3] 0.001 | [4] -0.059 | [5] 0.009 | saracatinib -0.006 | sotrastaurin -0.009

NDUFA8 (UniProt P51970)
inactive: vemurafenib 0.035 | [1] -0.022 | barasertib -0.055 | [2] -0.011 | volasertib 0.012 | [3] 0.047 | [4] 0.175 | [5] -0.083 | saracatinib -0.024 | sotrastaurin 0.009

NFATC1 (UniProt O95644)
inactive: vemurafenib 0.004 | [1] 0.058 | barasertib -0.015 | [2] 0.001 | volasertib 0 | [3] 0.007 | [4] -0.118 | [5] 0.064 | saracatinib 0.042 | sotrastaurin 0

NIP7 (UniProt Q9Y221)
inactive: vemurafenib -0.053 | [1] 0.045 | barasertib -0.061 | [2] 0.014 | volasertib -0.063 | [3] 0.06 | [4] -0.1 | [5] 0.044 | saracatinib 0.021 | sotrastaurin 0.012

NELFA (UniProt Q9H3P2)
inactive: vemurafenib 0.015 | [1] 0.02 | barasertib -0.005 | [2] -0.016 | volasertib -0.083 | [3] 0.007 | [4] 0.037 | [5] -0.037 | saracatinib -0.013 | sotrastaurin 0.029
